No constants are given. Whether binding was seen depends on the method and setting. Where a sequence is shown, tags or fusion partners need not be part of it.
Target: KaiA3 (Sll0485), GAL4 DNA-binding domain fusion (Synechocystis sp. PCC 6803)
Assay: two-hybrid

- binding: no binding
B1: KaiC1, GAL4 fusion for yeast two-hybrid (protein, UniProt P74646 1-519)
chain: MNLPIVNERNRPDVPRKGVQKIRTVIEGFDEITHGGLPIGRTTLVSGTSGTGKTLLAVQFLYQGIHHFDYPGLFITFEESPSDIIENAYSFGWDLQQLIDDGKLFILDASPDPEGQEVVGTFDLSALIERIQYAVRKYKAKLVSIDSVTAVFQQYDAASVVRREIFRLVARLKQLQVTSIMTTERVEEYGPIARFGVEEFVSDNVVVLRNVLEGERRRRTVEILKLRGTTHMKGEYPFTITHDGINIFPLGAMRLTQRSSNARISSGVQTLDEMCGGGFFKDSIILATGATGTGKTLLVSKFLQEGCRQRERAILFAYEESRAQLSRNASSWGIDFEEMEHKGLLKLLCTYPESAGLEDHLQMIKSEISEFKPSRIAIDSLSALARGVTNNAFRQFVIGVTGYAKQEEITGFFTNTTDQFMGAHSITESHISTITDTILMLQYVEIRGEMSRALNVFKMRGSWHDKGIREYSISHDGPDIRDSFRNYERIISGSPTRISVDEKSELSRIVRGVKDKTAE

— paper doi:10.1101/2021.07.20.453058 (bioRxiv, 2021)
